What all share (experiment): protein microarray (ProtoArray v5.0), streptavidin-Alexa Fluor 647
Conditions in all cases: 3'-biotin; 20 mM Tris (pH 7.5), 5 mM MgCl2, 100 mM KCl, 0.1% Tween-20, A/T-rich and random oligonucleotide blockers; temperature not stated; high values mean tight binding

Amino acid sequences for entries named in this document (tags omitted). A change or cut given only in a name is not applied to a line headed by its entry.
UniProt Q9H0R8: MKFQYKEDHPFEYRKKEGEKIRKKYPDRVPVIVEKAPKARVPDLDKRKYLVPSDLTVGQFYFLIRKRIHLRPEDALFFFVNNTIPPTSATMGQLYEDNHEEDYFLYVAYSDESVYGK

The subject of experiment [1] is Aflatoxin B1 aldehyde reductase member 2 (human).
Experiment [2] concerns Ras-related C3 botulinum toxin substrate 1 (human).
The target in experiment [3] is GABARAPL1 (UniProt Q9H0R8).
Experiment [4] deals with GABARAPL1 (UniProt Q9H0R8). The source holds these as a separate data set.

This is one part of the list. For some of these results: Construct or isoform of the protein are uncertain.

Consider “GGGAGGCTGAGGCAGG [G4-1 biotinylated (PQS2)]”, for which the binding signal in experiment [1] is -0.295 z-score; in experiment [2], -0.273 z-score.
As for “GGTGACAGGGGTATGGGGAGGGG [G4-2 biotinylated (Ct1)]”, the binding signal in the experiment with GABARAPL1 [3] was 3.77 z-score.
On to “GGGGACAGGGGTATGGGGAGGGG [G4-3 biotinylated (CtG)]”, for which the binding signal with GABARAPL1 [4] was found to be 4.68 z-score.

The values are drawn from article PMC5996148.
